According to PubChem BioAssay (NCATS):
This list was built around the results that the source calls inconclusive (neither active nor inactive); the mix of calls is not that of the screen. Potencies of inconclusive entries are doubtful fits and often do not repeat. The source made the active and inactive calls. Calls follow the shape of the dose curve; as a rule, active = well fitted cell-killing curve with a large enough effect; inconclusive = small, poorly fitted or top-dose-only effect, or effect the other way; inactive = no such curve, though single readings can be large or run the other way. Bridge positions count the residues as written; N and C are the ends. Square brackets hold non-standard residues; d marks the D form. Peptide text beside a SMILES is read from it. * marks the point of attachment. ξ: configuration not given here. Octanoyl(6-Me) = CCC(C)CCCCC(=O)*; ξThr(3R) = C[C@@H](O)C(N)C(=O)O; dDab = NCC[C@@H](N)C(=O)O; Dab = NCC[C@H](N)C(=O)O

Key:
[1] = Quantitative High-Throughput drug screen in 47 multiple myeloma cell lines against the NCATS MIPE library collection: L363_DSMZ cell viability assay (AID 1918984); conditions: L363 myeloma viability, CellTiter-Glo ATP luminescence, 48 h; viability (% of control): at 45.8 µM (top of the series); also: nearly all actives have a fitted effect of over 40% in size
How it was run: (§1)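 ATP-based CellTiter-Glo luminescence after 48 h drug exposure (37 °C, 5% CO2) of 500 myeloma cells per well. DMSO-only wells set 100% viability, media-only wells 0%; MIPE 4.0 library added by pin tool.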

[2] = Quantitative High-Throughput drug screen in 47 multiple myeloma cell lines against the NCATS MIPE library collection: KMS34_JCRB cell viability assay (AID 1918985); conditions: KMS34 myeloma viability, CellTiter-Glo ATP luminescence, 48 h; viability, percent of control: at 45.8 µM (top of the series); also: nearly all actives have a fitted effect of over 40% in size
How it was run: as §1

[3] = Quantitative High-Throughput drug screen in 47 multiple myeloma cell lines against the NCATS MIPE library collection: OCIMY7_PLB cell viability assay (AID 1918987); conditions: OCI-MY7 myeloma viability, CellTiter-Glo ATP, 48 h; viability (% of DMSO): at 45.8 µM (top of the series); also: nearly all actives have a fitted effect of over 65% in size
How it was run: as §1

[4] = Quantitative High-Throughput drug screen in 47 multiple myeloma cell lines against the NCATS MIPE library collection: OCIMY5_PLB cell viability assay (AID 1918988); conditions: OCI-MY5 myeloma viability, ATP luminescence, 48 h; viability, % of control: at 45.8 µM (top of the series); also: nearly all actives have a fitted effect of over 65% in size;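 as to viability, % of control: 100% = DMSO-treated wells and 0% = wells with media alone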
How it was run: as §1

[5] = Quantitative High-Throughput drug screen in 47 multiple myeloma cell lines against the NCATS MIPE library collection: OPM1_PLB cell viability assay (AID 1918989); also: nearly all actives have a fitted effect of over 40% in size
How it was run: as §1

[6] = Quantitative High-Throughput drug screen in 47 multiple myeloma cell lines against the NCATS MIPE library collection: U266_ATCC cell viability assay (AID 1919864); also: nearly all actives have a fitted effect of over 35% in size
How it was run: as §1

[7] = Quantitative High-Throughput drug screen in 47 multiple myeloma cell lines against the NCATS MIPE library collection: XG6_PLB cell viability assay (AID 1919865); conditions: XG6 myeloma viability, CellTiter-Glo ATP luminescence, 48 h; viability (% of control): at 45.8 µM (top of the series); also: nearly all actives have a fitted effect of over 40% in size
How it was run: as §1

[8] = Quantitative High-Throughput drug screen in 47 multiple myeloma cell lines against the NCATS MIPE library collection: XG1_PLB cell viability assay (AID 1919866); also: nearly all actives have a fitted effect of over 35% in size
How it was run: as §1

[9] = Quantitative High-Throughput drug screen in 47 multiple myeloma cell lines against the NCATS MIPE library collection: VP6_DJ cell viability assay (AID 1919867); conditions: ATP luminescence, 48 h; viability (% of DMSO): at 45.8 µM (top of the series); also: nearly all actives have a fitted effect of over 40% in size
How it was run: as §1

[10] = Quantitative High-Throughput drug screen in 47 multiple myeloma cell lines against the NCATS MIPE library collection: SKMM1_PLB cell viability assay (AID 1919863); conditions: SKMM1 myeloma viability, CellTiter-Glo ATP, 48 h; viability: hits give low values; also: nearly all actives have a fitted effect of over 35% in size
How it was run: as §1
Potency is read from the fitted curve at half-maximal effect.

Structure (SMILES)	Potency [1]	Potency [2]	Potency [3]	Potency [4]	Potency [5]	Potency [6]	Potency [7]	Potency [8]	Potency [9]	viability [10]	Potency [10]
C1Cc2[nH]nc(-c3nn[nH]n3)c2C1	inactive	inconclusive: 0.001 µM [cytotoxic]	inconclusive: 0.0037 µM [rising, full curve, poor fit]	inconclusive: 0.0066 µM [cytotoxic, full curve, poor fit]	inconclusive: 33.2 µM [cytotoxic, single point]	inconclusive: 0.0083 µM [rising, full curve, poor fit]	inactive	inactive	inconclusive: 37.2 µM [cytotoxic, single point]	–	–
COc1nc(-c2ccc3c(c2)OCO3)n(-c2ccc(NC(=O)CSc3ccccc3)cc2)n1	inconclusive: 0.003 µM [cytotoxic, full curve, poor fit]	inactive	inconclusive: 0.0042 µM [cytotoxic, full curve, poor fit]	inconclusive: 14.8 µM [cytotoxic, partial curve, poor fit]	inconclusive: 8.33 µM [cytotoxic, partial curve, poor fit]	active: 5.26 µM	–	–	inconclusive: 0.0053 µM [rising, full curve, poor fit]	–	–
COc1cc(C)c(C=CC(C)=CC=CC(C)=CC(=O)O)c(C)c1C	inactive	inactive	inconclusive: 37.2 µM [rising, partial curve, poor fit]	inconclusive: 9.35 µM [rising, partial curve]	inconclusive: 0.0743 µM [rising, full curve, poor fit]	inactive	–	inactive	inconclusive: 0.0093 µM [rising, full curve, poor fit]	inactive: 132%	–
COc1c(N2CCNC(C)C2)c(F)cc2c(=O)c(C(=O)O)cn(C3CC3)c12 (centres undefined)	inconclusive: 3.72 µM [cytotoxic, full curve, poor fit]	inconclusive: 1.66 µM [rising, full curve, poor fit]	inconclusive: 2.35 µM [rising, full curve, poor fit]	inactive	inconclusive: 0.0026 µM [rising, full curve, poor fit]	inactive	–	inactive	inconclusive: 13.2 µM [cytotoxic, partial curve, poor fit]	–	–
Cc1ccc(C(=O)N(CCCN)[C@@H](c2oc3cc(Cl)ccc3c(=O)c2Cc2ccccc2)C(C)C)cc1	inconclusive: 33.2 µM [cytotoxic, partial curve, poor fit]	inactive	inconclusive: 9.35 µM [cytotoxic, full curve, poor fit]	inactive	inconclusive: 6.62 µM [cytotoxic, full curve]	–	inconclusive: 10.5 µM [cytotoxic, full curve]	inconclusive: 5.9 µM [cytotoxic, partial curve, poor fit]	inconclusive: 10.5 µM [cytotoxic, full curve]	–	inconclusive: 26.4 µM [cytotoxic, single point]
COc1ccc(Nc2nccc(NCCO)n2)cc1	inactive	inconclusive: 0.0013 µM [rising, full curve, poor fit]	inconclusive: 1.48 µM [cytotoxic, full curve, poor fit]	inconclusive: 0.0037 µM [rising, full curve]	–	–	–	–	–	–	inconclusive: 0.0037 µM [rising, full curve, poor fit]
C#C[C@]1(O)CC[C@H]2[C@H]3CCc4cc(OC)ccc4[C@H]3CC[C@@]21C	inactive	inconclusive: 0.0042 µM [rising, full curve, poor fit]	inconclusive: 20.9 µM [cytotoxic, partial curve, poor fit]	inconclusive: 4.69 µM [cytotoxic, full curve, poor fit]	–	inconclusive: 26.4 µM [cytotoxic, single point]	–	–	–	–	inconclusive: 26.4 µM [cytotoxic, single point]
COc1ncnc(NS(=O)(=O)c2ccc(N)cc2)c1OC	inconclusive: 0.001 µM	inactive	inconclusive: 4.18 µM [rising, full curve, poor fit]	inconclusive: 0.187 µM [rising, full curve, poor fit]	inactive	inactive	inactive	–	inactive	–	–
O=C(CO)N1CCC(c2[nH]nc(-c3ccc(Cl)cc3)c2-c2ccncn2)CC1	inconclusive: 7.43 µM [cytotoxic, full curve, poor fit]	inactive	inconclusive: 0.0132 µM [rising, full curve]	inconclusive: 1.32 µM [cytotoxic, full curve, poor fit]	active: 3.32 µM	inactive	inconclusive: 0.0209 µM [cytotoxic, full curve, poor fit]	inactive	–	–	–
CC(C)OC(=O)C(C(=O)OC(C)C)=C1SC=CS1	inactive	inconclusive: 26.4 µM [cytotoxic, single point]	inactive	inconclusive: 33.2 µM [rising, single point]	inconclusive: 0.0264 µM [cytotoxic, full curve, poor fit]	inconclusive: 23.5 µM [cytotoxic, partial curve, poor fit]	–	inactive	inactive	–	inconclusive: 6.62 µM [cytotoxic, partial curve, poor fit]
CC[C@H]1OC(=O)[C@H](C)[C@@H](O[C@H]2C[C@@](C)(OC)[C@@H](O)[C@H](C)O2)[C@H](C)[C@@H](O[C@@H]2O[C@H](C)C[C@H](N(C)C)[C@@H]2O)[C@](C)(O)C[C@@H](C)CN(C)[C@H](C)[C@@H](O)[C@]1(C)O	inconclusive: 0.526 µM [cytotoxic, full curve, poor fit]	inconclusive: 6.62 µM [rising, partial curve, poor fit]	inconclusive: 0.105 µM [cytotoxic, full curve, poor fit]	inconclusive: 11.8 µM [rising, single point]	inconclusive: 0.0037 µM [rising, full curve, poor fit]	–	inconclusive: 0.059 µM [cytotoxic, full curve, poor fit]	inconclusive: 0.526 µM [cytotoxic, full curve, poor fit]	inactive	–	–
Cn1c(=O)c2[nH]cnc2n(C)c1=O	inconclusive: 0.0209 µM [cytotoxic, full curve, poor fit]	inactive	inconclusive: 0.001 µM [cytotoxic]	inconclusive: 18.7 µM [cytotoxic, partial curve, poor fit]	inactive	–	–	inconclusive: 26.4 µM [cytotoxic, single point]	inconclusive: 0.0332 µM [rising, full curve, poor fit]	–	–
CCC(C)CCCCC(=O)N[C@@H](CCN)C(=O)NC(C(=O)N[C@H](CCN)C(=O)N[C@@H]1CCNC(=O)C([C@@H](C)O)NC(=O)[C@@H](CCN)NC(=O)[C@@H](CCN)NC(=O)[C@@H](CC(C)C)NC(=O)[C@H](Cc2ccccc2)NC(=O)[C@H](CCN)NC1=O)[C@@H](C)O (stereo partly drawn) ({Octanoyl(6-Me)}-[Dab][ξThr(3R)][dDab][dDab][Dab]F[dL][dDab][dDab][ξThr(3R)]; lactam 4-C)	inconclusive: 7.43 µM [cytotoxic, partial curve, poor fit]	inactive	inactive	inconclusive: 0.0418 µM [cytotoxic, full curve, poor fit]	inconclusive: 0.0037 µM [rising, full curve, poor fit]	–	inconclusive: 18.7 µM [cytotoxic, partial curve, poor fit]	inactive	inactive	inactive: 110%	–
CN1CCN2c3ncccc3Cc3ccccc3C2C1 (centres undefined)	inconclusive: 0.001 µM	inactive	inconclusive: 0.0012 µM [rising, full curve, poor fit]	inconclusive: 2.09 µM [cytotoxic, full curve, poor fit]	inactive	inconclusive: 7.43 µM [cytotoxic, partial curve, poor fit]	–	inconclusive: 5.26 µM [cytotoxic, partial curve, poor fit]	inactive	–	inconclusive: 4.18 µM [cytotoxic, full curve, poor fit]
COc1cc(N2CCC(N3CCN(C)CC3)CC2)ccc1Nc1ncnc(Nc2ccccc2S(=O)(=O)C(C)C)n1	inconclusive: 0.0372 µM [cytotoxic, full curve, poor fit]	inconclusive: 16.6 µM [cytotoxic, partial curve, poor fit]	inconclusive: 9.35 µM [cytotoxic, partial curve, poor fit]	inconclusive: 16.6 µM [cytotoxic, partial curve, poor fit]	inconclusive: 16.6 µM [cytotoxic, partial curve, poor fit]	inconclusive: 29.6 µM [cytotoxic, single point]	–	inconclusive: 13.2 µM [cytotoxic, partial curve, poor fit]	inconclusive: 6.62 µM [cytotoxic, full curve, poor fit]	–	active: 23.5 µM
CNS(=O)(=O)Cc1ccc2[nH]cc(CCN(C)C)c2c1	inconclusive: 0.0105 µM [rising, full curve, poor fit]	inactive	inactive	inactive	inactive	inconclusive: 0.0023 µM [rising, full curve, poor fit]	inactive	inactive	inconclusive: 23.5 µM [cytotoxic, partial curve, poor fit]	–	–

An excerpt of these results, as a markdown table.

| Structure (SMILES) | Potency [1] | Potency [2] | Potency [3] | Potency [4] | Potency [5] | Potency [6] | Potency [7] | Potency [8] | Potency [9] | viability [10] | Potency [10] |
| --- | --- | --- | --- | --- | --- | --- | --- | --- | --- | --- | --- |
| C#C[C@]1(O)CC[C@H]2[C@H]3CCc4cc(OC)ccc4[C@H]3CC[C@@]21C | inactive | inconclusive: 0.0042 µM [rising, full curve, poor fit] | inconclusive: 20.9 µM [cytotoxic, partial curve, poor fit] | inconclusive: 4.69 µM [cytotoxic, full curve, poor fit] | – | inconclusive: 26.4 µM [cytotoxic, single point] | – | – | – | – | inconclusive: 26.4 µM [cytotoxic, single point] |
| COc1ncnc(NS(=O)(=O)c2ccc(N)cc2)c1OC | inconclusive: 0.001 µM | inactive | inconclusive: 4.18 µM [rising, full curve, poor fit] | inconclusive: 0.187 µM [rising, full curve, poor fit] | inactive | inactive | inactive | – | inactive | – | – |
